Measurements: patent US20140000882A1, “PETROLEUM RECOVERY PROCESS AND SYSTEM” (Shell Oil Company, priority 2012, published 2014)

Test: Oil recovery from formation core by brine displacement followed by DMS displacement
Settings: after brine displacement
Procedure: Incremental recovery of oil from a formation core using an oil recovery formulation consisting of dimethyl sulfide following oil recovery from the core by water-flooding was measured to evaluate the effectiveness of DMS as a tertiary oil recovery agent.
Two 5.02 cm long Berea sandstone cores with a core diameter of 3.78 cm and a permeability between 925 and 1325 mD were saturated with a brine having a composition as set forth in Table 7.
After saturation of the cores with brine, the brine was displaced by a Middle Eastern Asphaltic crude oil having the characteristics as set forth above in Table 3 to saturate the cores with oil.
Oil was recovered from each oil saturated core by the addition of brine to the core under pressure and by subsequent addition of DMS to the core under pressure. Each core was treated as follows to determine the amount of oil recovered from the core by addition of brine followed by addition of DMS. Oil was initially displaced from the core by addition of brine to the core under pressure. A confining pressure of 1 MPa was applied to the core during addition of the brine, and the flow rate of brine to the core was set at 0.05 ml/min. The core was maintained at a temperature of 50° C. during displacement of oil from the core with brine. Oil was produced and collected from the core during the displacement of oil from the core with brine until no further oil production was observed (24 hours). After no further oil was displaced from the core by the brine, oil was displaced from the core by addition of DMS to the core under pressure. DMS was added to the core at a flow rate of 0.05 ml/min for a period of 32 hours for the first core and for a period of 15 hours for the second core. Oil displaced from the core during the addition of DMS to the core was collected separately from the oil displaced by the addition of brine to the core.
The oil samples collected from each core by brine displacement and by DMS displacement were isolated from water by extraction with dichloromethane, and the separated organic layer was dried over sodium sulfate. After evaporation of volatiles from the separated, dried organic layer of each oil sample, the amount of oil displaced by brine addition to a core and the amount of oil displaced by DMS addition to the core were weighed. Volatiles were also evaporated from a sample of the Middle Eastern asphaltic oil to be able to correct for loss of light-end compounds during evaporation.

[1] = Core 1, 0.05 ml/min for 32 hours
[2] = Core 2, 0.05 ml/min for 15 hours

CSC [Dimethyl Sulfide, dimethyl sulfide]
Oil produced DMS displacement [1]: 3.5 mL
Oil produced DMS displacement (of % oil initially in core) [1]: 32%
Oil produced DMS displacement [2]: 3.3 mL
Oil produced DMS displacement (of % oil initially in core) [2]: 30%
